Results are given in words; binding and its absence hold for the method and conditions named. In cells and extracts the contact can be indirect. A result given as binding can be weak or reduced; the word gives no strength.
Legend:
[1] = target: V5DispHA, wild-type murine Dispatched 1 with V5 and HA tags, expressed in Disp-/- cells (mouse) (UniProt Q3TDN0); assay: co-IP; Disp proteins co-expressed with Shh in Disp-/- cells; DispHA immunoprecipitated from lysates on anti-HA affinity gel; anti-Shh western blot
[2] = target: V5DispHA CS, cleavage site mutant (R279A, E280A) of murine Dispatched 1, expressed in Disp-/- cells (mouse) (UniProt Q3TDN0); assay: as above

Amino acid sequences for entries named in this document (tags omitted). A change or cut given only in a name is not applied to a line headed by its entry.
UniProt Q3TDN0: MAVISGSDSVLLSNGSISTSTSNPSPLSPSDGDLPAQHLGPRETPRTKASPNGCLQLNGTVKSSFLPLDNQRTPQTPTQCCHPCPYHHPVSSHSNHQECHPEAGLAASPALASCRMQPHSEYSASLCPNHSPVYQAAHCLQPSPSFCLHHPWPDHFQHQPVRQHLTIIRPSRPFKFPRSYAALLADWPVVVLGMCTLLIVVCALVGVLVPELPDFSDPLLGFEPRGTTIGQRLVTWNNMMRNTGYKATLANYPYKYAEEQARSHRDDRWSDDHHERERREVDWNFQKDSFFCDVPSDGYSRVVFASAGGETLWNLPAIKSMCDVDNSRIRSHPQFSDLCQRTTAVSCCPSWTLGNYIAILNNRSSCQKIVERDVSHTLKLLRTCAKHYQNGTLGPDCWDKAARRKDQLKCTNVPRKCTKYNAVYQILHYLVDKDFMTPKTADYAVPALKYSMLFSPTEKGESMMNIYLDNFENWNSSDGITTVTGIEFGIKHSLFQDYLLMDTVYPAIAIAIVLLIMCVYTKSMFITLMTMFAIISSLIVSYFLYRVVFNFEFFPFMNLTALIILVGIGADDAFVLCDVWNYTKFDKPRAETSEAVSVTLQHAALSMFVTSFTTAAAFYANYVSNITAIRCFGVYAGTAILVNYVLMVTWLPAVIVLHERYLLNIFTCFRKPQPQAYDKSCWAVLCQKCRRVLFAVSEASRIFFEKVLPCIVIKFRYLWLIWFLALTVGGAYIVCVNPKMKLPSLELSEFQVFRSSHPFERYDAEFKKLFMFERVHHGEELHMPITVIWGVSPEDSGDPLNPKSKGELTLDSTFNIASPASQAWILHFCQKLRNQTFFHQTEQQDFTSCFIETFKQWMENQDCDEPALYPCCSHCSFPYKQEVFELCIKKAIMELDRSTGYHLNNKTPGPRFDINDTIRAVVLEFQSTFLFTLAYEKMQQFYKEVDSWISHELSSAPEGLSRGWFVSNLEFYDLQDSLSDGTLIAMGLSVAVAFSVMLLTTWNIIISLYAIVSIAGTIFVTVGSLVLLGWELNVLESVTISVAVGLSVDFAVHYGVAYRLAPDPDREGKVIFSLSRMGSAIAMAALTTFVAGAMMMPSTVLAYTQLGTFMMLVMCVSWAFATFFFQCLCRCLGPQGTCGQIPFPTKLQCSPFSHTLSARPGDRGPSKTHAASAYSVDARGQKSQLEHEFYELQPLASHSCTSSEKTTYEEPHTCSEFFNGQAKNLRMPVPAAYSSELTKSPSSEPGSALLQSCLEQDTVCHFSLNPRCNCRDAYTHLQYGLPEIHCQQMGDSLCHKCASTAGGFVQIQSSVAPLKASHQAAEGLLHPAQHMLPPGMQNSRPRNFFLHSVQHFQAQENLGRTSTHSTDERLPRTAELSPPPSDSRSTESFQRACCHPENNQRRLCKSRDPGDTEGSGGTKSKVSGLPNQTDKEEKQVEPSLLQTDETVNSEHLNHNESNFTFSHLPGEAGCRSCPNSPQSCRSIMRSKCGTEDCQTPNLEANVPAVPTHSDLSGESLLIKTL
UniProt Q62226: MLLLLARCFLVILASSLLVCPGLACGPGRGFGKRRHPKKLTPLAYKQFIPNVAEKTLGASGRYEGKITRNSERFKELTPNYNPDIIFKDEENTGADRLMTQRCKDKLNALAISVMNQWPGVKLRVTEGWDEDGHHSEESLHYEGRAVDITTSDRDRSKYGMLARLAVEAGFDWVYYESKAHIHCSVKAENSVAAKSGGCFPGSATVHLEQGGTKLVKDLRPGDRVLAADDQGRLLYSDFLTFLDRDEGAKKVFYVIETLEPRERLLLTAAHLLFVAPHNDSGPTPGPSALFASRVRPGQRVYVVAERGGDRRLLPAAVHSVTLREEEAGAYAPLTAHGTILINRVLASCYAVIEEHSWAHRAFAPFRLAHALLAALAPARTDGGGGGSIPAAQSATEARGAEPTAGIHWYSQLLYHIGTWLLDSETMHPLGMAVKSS

Question: “Sonic Hedgehog (Shh) (from UniProt Q62226) (ligand)” was tested. Which binding [1] did it give?
Answer: The binding was “binds”.

Question: What about the binding [2] of the same substance?
Answer: The binding was “binds”.

— paper PMC5811216, “Cleavage activates Dispatched for Sonic Hedgehog ligand release” (eLife, 2018)
